Results taken from patent US20260062463A1.

B1: A4-001 (VHH)
VHH: VQLQESGGGLVQPGGSLRLSCAASGRSFSINTMGWYRQAPGKQRELVATVTRGGSTNYAGSVKGRFTISRDNAKNTVYLQMNSLRPEDTAVYYCHIDEVRQSSWTTSNIWGQGTQVTVSS
B2: A4-003 (VHH)
VHH: B1 VHH with A22V, T49A
B3: A4-004 (VHH)
VHH: B1 VHH with R26S, S27R, T49A
B4: A4-021 (VHH)
VHH: B1 VHH with P13A, R26S, S27T, V50I, S55N, G60D, I96V
modifications: HRP-conjugated (site not stated)
B5: A4-040 (VHH)
VHH: B1 VHH with S27I, G60D, I96V, V99I, I109L
B6: A4-002 (VHH)
VHH: B1 VHH with T49A
B7: A4-H2 (VHH)
VHH: VQLQASGGGFVQPGGSLRLSCAASGRSFSINTMGWFRQAPGKEREFVAVVTRGGSTYYADSVKGRFTISRDNSKNTVYLQMNSLRAEDTATYYCHIDEVRQSSWTTSNIWGQGTQVTVSS
B8: A4-H1 (VHH)
VHH: B7 VHH with Q4V, A5E, F10L, E43G, R44L, F46A, V49I, V77L, T91V, Q115L

Legend:
AAV5 = test: SPR, AAV amine-coupled to a CM5 chip, nanobody injected at 100 to 1.5625 nM (top to bottom)
AAV8 = test: as above
AAV9 = test: as above
AAV8 (AAV8) [1] = test: direct ELISA and sandwich ELISA, HRP-conjugated A4-021 as detector
AAV8 (AAV8) [2] = test: direct ELISA: AAV8 standards coated on the plate, detection with HRP-conjugated A4-021, TMB, OD450
AAV8 (AAV8) [3] = test: sandwich ELISA: A4-040 coated as capture ligand, AAV8 standards, detection with HRP-conjugated A4-021, TMB, OD450
AAV8 (AAV8) [4] = test: sandwich ELISA, A4-040 coated as capture ligand, HRP-A4-021 as detector
AAV5 (AAV5) = test: SPR, AAV on CM5 chip
AAV8 (AAV8) [5] = test: SPR, AAV on CM5 chip
AAV9 (AAV9) = test: SPR, AAV on CM5 chip

Binder | binding (AAV5) | binding (AAV8) | binding (AAV9) | other results
B1 | binds | binds | binds | 
B2 | binds | binds | binds | 
B3 | binds | binds | binds | 
B4 |  |  |  | binding (AAV8 (AAV8) [1]): binds; binding (AAV8 (AAV8) [2]): binds; binding (AAV8 (AAV8) [3]): binds
B5 |  |  |  | binding (AAV8 (AAV8) [4]): binds; binding (AAV8 (AAV8) [3]): binds
B6 | binds | binds | binds | 
B7 |  |  |  | binding (AAV5 (AAV5)): binds; binding (AAV8 (AAV8) [5]): binds; binding (AAV9 (AAV9)): binds
B8 |  |  |  | binding (AAV5 (AAV5)): binds; binding (AAV8 (AAV8) [5]): binds; binding (AAV9 (AAV9)): binds

Residue numbers refer to the chain shown, from its start. Results are given in words; binding and its absence hold for the method and conditions named. A result given as binding can be weak or reduced; the word gives no strength.
